Test results: the supplement of paper PMC10689618
The list shows a part of the results. Repeats are few or missing, and single values can be far off.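 Labelled rat cortical synaptosomes were engulfed by primary human fetal astrocytes. Engulfment equaled a red/green ratio, corrected for calcein live-cell signal and normalized to the plate median. Compounds were toxic when calcein dropped over 30%, and reduced phagocytosis when below 70% of the median above 5 µM.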

Each molecule was assayed on Human fetal astrocytes (assay: loss of total cells relative to no-compound high-control median (toxicity); higher = more toxic (fewer cells)). Conditions: 22.22 µM; 24 h.

| SMILES | loss of total cells [%] |
| --- | --- |
| CC(C(=O)O)c1ccc(C(=O)c2cccs2)cc1 (stereo not drawn) | 3.4 |
| CN1CC(=O)NC1=N | 1.5 |
| C=C[C@@H](C1=CC(=O)C(OC)=C(OC)C1=O)c1ccccc1 | 53 |
| C[C@]12CCC(=O)C=C1CC[C@@H]1[C@@H]2[C@@H](O)C[C@@]2(C)[C@H]1CC[C@]2(O)C(=O)COP(=O)(O)O | -7 |
| C[N+](C)(C)C[C@H](O)CC(=O)[O-] | 5.3 |
| C[C@H]1COC2=C1C(=O)C(=O)c1c2ccc2c1CCCC2(C)C | 27.4 |
| NC[C@H]1CC[C@H](C(=O)O)CC1 | 17.6 |
| COc1ccc(-c2cc(=O)c3c(O)cc(OC)c(OC)c3o2)c(OC)c1 | 5.9 |
| COc1cc(O)c(C(C)=O)c(O)c1 | 25.9 |
| COc1ccc([C@H]2Oc3cc(OC)cc(OC)c3C[C@H]2O)cc1 | -4.1 |
| O=C(O)[C@H](O)[C@@H](O)[C@H](O[C@@H]1O[C@H](CO)[C@H](O)[C@H](O)[C@H]1O)[C@H](O)CO | 9.8 |
| CCOc1ccc(NC(=O)CC(C)O)cc1 (stereo not drawn) | 20.5 |
| Cc1ccc(S(=O)(=O)NC(=O)NN2CCCCCC2)cc1 [Tolazamide] | 11.9 |
| c1ccc(CN(CC2=NCCN2)c2ccccc2)cc1 | 22.7 |
| CC(C)(C)NCC(O)c1cc(O)cc(O)c1 (stereo not drawn) | -7 |
| CC(C)(Oc1ccc(CCNC(=O)c2ccc(Cl)cc2)cc1)C(=O)O | -4.5 |
| O=C(O)CS | 3 |
| NC(=O)N1c2ccccc2CC(=O)c2ccccc21 [Trileptal] | 10.3 |
| CC(C)=CCC[C@@H](C)[C@@H]1CC[C@]2(C)C3=C(CC[C@@]12C)[C@@]1(C)CC[C@H](O)C(C)(C)[C@@H]1CC3 | 18.9 |
| COc1cc(C)c(C(=O)Oc2cc(C)c(C(=O)O)c(O)c2C)c(OC)c1C | 19.3 |

| SMILES | loss of total cells [%] |
| --- | --- |
| CON | 3 |
| O=C(O)Cc1cc(I)c(Oc2ccc(O)c(I)c2)c(I)c1 | 25.8 |
| CC(=O)Oc1cc(OC(C)=O)c2c(c1)O[C@H](c1ccc(OC(C)=O)c(OC(C)=O)c1)[C@H](OC(C)=O)C2 | -15.2 |
| Cc1occc(=O)c1O | 15.6 |
| CC(=O)C1CCC2C3CC=C4CC(OS(=O)(=O)O)CCC4(C)C3CCC12C (stereo not drawn) | 12.6 |
| CC(=O)NCCCCCC(=O)O | 9.8 |
| c1coc(CNc2ncnc3[nH]cnc23)c1 | 13.6 |
| CC(=O)Nc1ccc(S(=O)(=O)c2ccc(NC(C)=O)cc2)cc1 | 6.8 |
| O=C(O)CCNC(=O)c1ccccc1 | 8.3 |
| CC1(C)S[C@@H]2[C@H](NC(=O)[C@H](N)c3ccc(O)cc3)C(=O)N2[C@H]1C(=O)O | 11.3 |
| CC(=O)Oc1cc(OC(C)=O)c2c(c1)O[C@H](c1ccc(OC(C)=O)c(OC(C)=O)c1)[C@@H](OC(C)=O)C2 | 24.8 |
| COCCc1ccc(OCC(O)CNC(C)C)cc1 (stereo not drawn) | 4 |
| O=C(O)C(S)C(S)C(=O)O (stereo not drawn) | 15.6 |
| O=c1[nH]cnc2c1ncn2[C@@H]1O[C@H](CO)[C@@H](O)[C@H]1O | 12.9 |
| CN(C(=O)CN(CCO)CC(=O)N(C)C(C)(C)Cc1ccccc1)C(C)(C)Cc1ccccc1 | 18.4 |
| CC(C)C[C@@H]1NC(=O)[C@H](CCCN)NC(=O)[C@H](C(C)C)NC(=O)[C@H](Cc2ccc(O)cc2)N[C@@H](CCC(=O)O)C(=O)N[C@@H](CC(N)=O)C(=O)[C@@H](Cc2ccccc2)NC(=O)[C@H](Cc2ccccc2)NC(=O)[C@@H]2CCCN2C(=O)[C@@H](Cc2ccccc2)NC1=O | 104 |
| COc1cc2c(cc1OC)-c1c(oc3cc(O)cc(O)c3c1=O)CO2 | 8.5 |
| Oc1ccc(/C=C/c2cc(O)cc(O)c2)cc1 [5-[2-(4-hydroxyphenyl)vinyl]-1,3-benzenediol] | 15.6 |
| CC(=O)OC1CCC2(C)C3=C(CC[C@H]2C1(C)C)[C@@]1(C)CC[C@@H]([C@@H](C)CCC=C(C)C)[C@]1(C)CC3 (stereo partly drawn) | -3 |

What follows are molecules tested on Human fetal astrocytes (assay: synaptosome phagocytosis (pHrodo/calcein intensity ratio) relative to plate median of data wells; higher = more phagocytosis). Conditions: 1.39 µM; 24 h.

| SMILES | synaptosome phagocytosis [%] |
| --- | --- |
| CC(C(=O)O)c1ccc(C(=O)c2cccs2)cc1 (stereo not drawn) | 69.8 |
| CN1CC(=O)NC1=N | 119 |
| C=C[C@@H](C1=CC(=O)C(OC)=C(OC)C1=O)c1ccccc1 | 95.8 |
| C[C@]12CCC(=O)C=C1CC[C@@H]1[C@@H]2[C@@H](O)C[C@@]2(C)[C@H]1CC[C@]2(O)C(=O)COP(=O)(O)O | 129 |
| C[N+](C)(C)C[C@H](O)CC(=O)[O-] | 171 |
| C[C@H]1COC2=C1C(=O)C(=O)c1c2ccc2c1CCCC2(C)C | 93 |
| NC[C@H]1CC[C@H](C(=O)O)CC1 | 113 |
| COc1ccc(-c2cc(=O)c3c(O)cc(OC)c(OC)c3o2)c(OC)c1 | 127 |
| COc1cc(O)c(C(C)=O)c(O)c1 | 86.1 |
| COc1ccc([C@H]2Oc3cc(OC)cc(OC)c3C[C@H]2O)cc1 | 60.2 |
| O=C(O)[C@H](O)[C@@H](O)[C@H](O[C@@H]1O[C@H](CO)[C@H](O)[C@H](O)[C@H]1O)[C@H](O)CO | 94.3 |
| CCOc1ccc(NC(=O)CC(C)O)cc1 (stereo not drawn) | 115 |
| Cc1ccc(S(=O)(=O)NC(=O)NN2CCCCCC2)cc1 [Tolazamide] | 120 |
| c1ccc(CN(CC2=NCCN2)c2ccccc2)cc1 | 103 |
| CC(C)(C)NCC(O)c1cc(O)cc(O)c1 (stereo not drawn) | 97.2 |
| CC(C)(Oc1ccc(CCNC(=O)c2ccc(Cl)cc2)cc1)C(=O)O | 100 |
| O=C(O)CS | 128 |
| NC(=O)N1c2ccccc2CC(=O)c2ccccc21 [Trileptal] | 144 |
| CC(C)=CCC[C@@H](C)[C@@H]1CC[C@]2(C)C3=C(CC[C@@]12C)[C@@]1(C)CC[C@H](O)C(C)(C)[C@@H]1CC3 | 99.4 |
| COc1cc(C)c(C(=O)Oc2cc(C)c(C(=O)O)c(O)c2C)c(OC)c1C | 132 |

Taken from above.
Value of `C[C@]12CCC(=O)C=C1CC[C@@H]1[C@@H]2[C@@H](O)C[C@@]2(C)[C@H]1CC[C@]2(O)C(=O)COP(=O)(O)O` under synaptosome phagocytosis [%]: 129
Value of `C=C[C@@H](C1=CC(=O)C(OC)=C(OC)C1=O)c1ccccc1` under synaptosome phagocytosis [%]: 95.8
Value of `CN1CC(=O)NC1=N` under synaptosome phagocytosis [%]: 119
Value of `COc1cc(C)c(C(=O)Oc2cc(C)c(C(=O)O)c(O)c2C)c(OC)c1C` under synaptosome phagocytosis [%]: 132

(further entries)

| SMILES | synaptosome phagocytosis [%] |
| --- | --- |
| CON | 128 |
| O=C(O)Cc1cc(I)c(Oc2ccc(O)c(I)c2)c(I)c1 | 94 |
| CC(=O)Oc1cc(OC(C)=O)c2c(c1)O[C@H](c1ccc(OC(C)=O)c(OC(C)=O)c1)[C@H](OC(C)=O)C2 | 109 |
| Cc1occc(=O)c1O | 142 |
| CC(=O)C1CCC2C3CC=C4CC(OS(=O)(=O)O)CCC4(C)C3CCC12C (stereo not drawn) | 121 |
| CC(=O)NCCCCCC(=O)O | 132 |
| c1coc(CNc2ncnc3[nH]cnc23)c1 | 120 |
| CC(=O)Nc1ccc(S(=O)(=O)c2ccc(NC(C)=O)cc2)cc1 | 95.6 |
| O=C(O)CCNC(=O)c1ccccc1 | 106 |
| CC1(C)S[C@@H]2[C@H](NC(=O)[C@H](N)c3ccc(O)cc3)C(=O)N2[C@H]1C(=O)O | 93.5 |
| CC(=O)Oc1cc(OC(C)=O)c2c(c1)O[C@H](c1ccc(OC(C)=O)c(OC(C)=O)c1)[C@@H](OC(C)=O)C2 | 81.7 |
| COCCc1ccc(OCC(O)CNC(C)C)cc1 (stereo not drawn) | 78.3 |
| O=C(O)C(S)C(S)C(=O)O (stereo not drawn) | 99.8 |
| O=c1[nH]cnc2c1ncn2[C@@H]1O[C@H](CO)[C@@H](O)[C@H]1O | 112 |
| CN(C(=O)CN(CCO)CC(=O)N(C)C(C)(C)Cc1ccccc1)C(C)(C)Cc1ccccc1 | 137 |
| CC(C)C[C@@H]1NC(=O)[C@H](CCCN)NC(=O)[C@H](C(C)C)NC(=O)[C@H](Cc2ccc(O)cc2)N[C@@H](CCC(=O)O)C(=O)N[C@@H](CC(N)=O)C(=O)[C@@H](Cc2ccccc2)NC(=O)[C@H](Cc2ccccc2)NC(=O)[C@@H]2CCCN2C(=O)[C@@H](Cc2ccccc2)NC1=O | 50.3 |
| COc1cc2c(cc1OC)-c1c(oc3cc(O)cc(O)c3c1=O)CO2 | 101 |
| Oc1ccc(/C=C/c2cc(O)cc(O)c2)cc1 [5-[2-(4-hydroxyphenyl)vinyl]-1,3-benzenediol] | 86.7 |
| CC(=O)OC1CCC2(C)C3=C(CC[C@H]2C1(C)C)[C@@]1(C)CC[C@@H]([C@@H](C)CCC=C(C)C)[C@]1(C)CC3 (stereo partly drawn) | 101 |
